PubChem BioAssay AID504804 – Drosophila RNAi Screening Center | 2011
Aim: 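Fly genes whose loss lessens doxorubicin-driven cell death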 (primary screen). Cell system: Drosophila Kc cells. Reagents: long dsRNA against Drosophila genes, 0.5 µg dsRNA per well. Time to read-out: 96 h (48 h knock-down, then 48 h drug). Treatment: doxorubicin 5 µg/ml for 48 h, added 48 h after dsRNA. Measurement: 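Luminescent ATP counts per replicate, not normalised, reflecting viable cells after 48 h dsRNA knock-down followed by 48 h of 5 µg/ml doxorubicin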. Direction: raw ATP luminescence: higher = more viable cells, protection from doxorubicin. Rule for the call: 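Active when both duplicate wells lie at least 2 SD above the plate mean and protection is confirmed by rescreening and independent dsRNAs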.
The deposit covers about 19,000 reagents; this is a random part of those with a known target gene and a result. Of all reagents, 47 (0.25%) got an active call. 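Signals are raw, not normalised; exact z-scores behind calls not deposited; actives needed confirmation, so some wells reaching 2 SD are inactive.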 A plus sign joins genes that one reagent is predicted to hit. No sequences are given here.

| SD above plate mean | raw ATP luminescence, replicate 1 | raw ATP luminescence, replicate 2 | outcome | target gene | dsRNA |
| --- | --- | --- | --- | --- | --- |
| – | 3.15e5 | 2.66e5 | inactive | FASN3 | DRSC20882 |
| – | 42080 | 52360 | inactive | CG6067 | DRSC18399 |
| – | 46190 | 82033 | inactive | mon2 | DRSC03112 |
| – | 53920 | 61317 | inactive | COX6AL2 + Ir75d | DRSC10081 |
| – | 26390 | 31770 | inactive | CG9643 | DRSC00722 |
| – | 54787 | 64137 | inactive | CG30394 | DRSC04074 |
| – | 48700 | 46247 | inactive | CG30394 | DRSC04260 |
| – | 86377 | 57390 | inactive | Argl + CG9515 | DRSC03243 |
| – | 42260 | 65010 | inactive | Argl + CG9515 | DRSC03245 |
| – | 85740 | 72893 | inactive | tant | DRSC11401 |
| – | 64820 | 60460 | inactive | Pxd | DRSC16805 |
| – | 70127 | 74573 | inactive | PIG-F | DRSC11069 |
| – | 43897 | 49040 | inactive | Hrd3 | DRSC14156 |
| – | 1.01e5 | 1.02e5 | inactive | CG11566 (retired record) + stg1 | DRSC20473 |
| – | 2.23e5 | 2.27e5 | inactive | CG11566 (retired record) + stg1 | DRSC20481 |
| – | 3.31e5 | 3.55e5 | inactive | CG11566 (retired record) + stg1 | DRSC20482 |
| – | 3.28e5 | 3.15e5 | inactive | CG11566 (retired record) + stg1 | DRSC20483 |
| – | 1.61e5 | 2.24e5 | inactive | feo | DRSC19398 |
| – | 1.35e5 | 1.84e5 | inactive | CG15919 | DRSC06594 |
| – | 91137 | 73443 | inactive | Pih1D1 | DRSC02897 |
| – | 48173 | 38967 | inactive | CG13055 | DRSC09936 |
| – | 74853 | 80293 | inactive | CG9330 | DRSC11066 |
| – | 95160 | 85040 | inactive | SerRS-m | DRSC14096 |
| – | 38370 | 38443 | inactive | Surf6 | DRSC15588 |
| – | 81813 | 56763 | inactive | LManV | DRSC03223 |
| – | 24020 | 27203 | inactive | vkg | DRSC03632 |
| – | 53020 | 68537 | inactive | PIG-A | DRSC06982 |
| – | 48327 | 41043 | inactive | grim | DRSC11352 |
| – | 93507 | 62357 | inactive | CG10494 | DRSC04072 |
| at least 2 SD above plate mean | 95030 | 86277 | active | VhaAC45 | DRSC07058 |
| – | 2.07e5 | 2.51e5 | inactive | CG18258 | DRSC19798 |
| – | 59060 | 72340 | inactive | CG34276 | DRSC15811 |
| – | 4.03e5 | 3.43e5 | inactive | Prp16 | DRSC19542 |
| – | 85270 | 77060 | inactive | CG14861 | DRSC14984 |
| – | 3.69e5 | 3.67e5 | inactive | Hs3st-B | DRSC20067 |
| – | 3.82e5 | 3.15e5 | inactive | RPA3 | DRSC19658 |
| – | 26650 | 34790 | inactive | CG10973 | DRSC09813 |

5 entries from above, reformatted:
SD above plate mean,"raw ATP luminescence, replicate 1","raw ATP luminescence, replicate 2",outcome,target gene,dsRNA
,59060,72340,inactive,CG34276,DRSC15811
,4.03e5,3.43e5,inactive,Prp16,DRSC19542
,85270,77060,inactive,CG14861,DRSC14984
,3.69e5,3.67e5,inactive,Hs3st-B,DRSC20067
,3.82e5,3.15e5,inactive,RPA3,DRSC19658

Further reagents:
| SD above plate mean | raw ATP luminescence, replicate 1 | raw ATP luminescence, replicate 2 | outcome | target gene | dsRNA |
| --- | --- | --- | --- | --- | --- |
| – | 40120 | 43120 | inactive | Mpcp2 | DRSC11226 |
| – | 89840 | 82610 | inactive | brun | DRSC02706 |
| – | 69597 | 68790 | inactive | obst-J | DRSC10821 |
| – | 2.49e5 | 2.65e5 | inactive | rg | DRSC17377 |
| – | 45880 | 42310 | inactive | rg | DRSC18049 |
| – | 16870 | 18540 | inactive | tub | DRSC12389 |
| – | 74657 | 57900 | inactive | Pkn | DRSC06809 |
| – | 50213 | 71993 | inactive | Pkn | DRSC06810 |
| – | 42610 | 34950 | inactive | crn | DRSC18184 |
| – | 41000 | 34590 | inactive | crn | DRSC18185 |
| – | 1.33e5 | 66427 | inactive | Adi1 | DRSC10945 |
| – | 84963 | 96567 | inactive | Cpr49Ab | DRSC05341 |
| – | 61223 | 68807 | inactive | CysRS | DRSC05948 |
| – | 1.87e5 | 1.44e5 | inactive | Mzt1 | DRSC07979 |
| – | 90410 | 66040 | inactive | Trhn | DRSC08621 |
| – | 75310 | 61497 | inactive | trc | DRSC11406 |
| – | 1.26e5 | 68800 | inactive | CG34198 | DRSC05803 |
| – | 63310 | 65963 | inactive | CG32436 | DRSC11683 |
| – | 66740 | 56057 | inactive | CG32436 | DRSC11796 |
| – | 1.06e5 | 82363 | inactive | Cdlc2 | DRSC00743 |
